These are yes or no findings as the source states them, for the method shown. Binding seen in cells or lysates may run through a third protein. Some binding calls cover weakened binding; strength is not graded here. Where a sequence is shown, tags or fusion partners need not be part of it.
Assays:
[1] = molecular target: Human FAM19A5 Protein (Isoform 1) (human) (UniProt Q7Z5A7); experiment: immunofluorescence and co-immunoprecipitation, co-transfected HEK293 cells
[2] = molecular target: Human FAM19A5 Protein (Isoform 1) (human) (UniProt Q7Z5A7); experiment: co-immunoprecipitation and immunofluorescence colocalisation, co-transfected HEK293 cells

Sequences of proteins named here, by UniProt entry; tags and fusion partners are left off. A change or cut given only in a name is not applied to a line headed by its entry.
UniProt Q7Z5A7: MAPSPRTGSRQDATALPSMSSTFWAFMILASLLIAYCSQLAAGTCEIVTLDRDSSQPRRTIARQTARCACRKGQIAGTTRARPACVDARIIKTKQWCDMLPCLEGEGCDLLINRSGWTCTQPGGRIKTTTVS

B1: FLAG-tagged LRRC4B protein (receptor, not shown: small tags and cut ends)
chain: AGGGGVAVTSAAGGGSPPATSCPVACSCSNQASRVICTRRDLAEVPASIPVNTRYLNLQENGIQVIRTDTFKHLRHLEILQLSKNLVRKIEVGAFNGLPSLNTLELFDNRLTTVPTQAFEYLSKLRELWLRNNPIESIPSYAFNRVPSLRRLDLGELKRLEYISEAAFEGLVNLRYLNLGMCNLKDIPNLTALVRLEELELSGNRLDLIRPGSFQGLTSLRKLWLMHAQVATIERNAFDDLKSLEELNLSHNNLMSLPHDLFTPLHRLERVHLNHNPWHCNCDVLWLSWWLKETVPSNTTCCARCHAPAGLKGRYIGELDQSHFTCYAPVIVEPPTDLNVTEGMAAELKCRTGTSMTSVNWLTPNGTLMTHGSYRVRISVLHDGTLNFTNVTVQDTGQYTCMVTNSAGNTTASATLNVSAVDPVAAGGTGSGGGGPGGSGGVGGGSGGYTYFTTVTVETLETQPGEEALQPRGTEKEPPGPTTDGVWGGGRPGDAAGPASSSTTAPAPRSSRPTEKAFTVPITDVTENALKDLDDVMKTTKIIIGCFVAITFMAAVMLVAFYKLRKQHQLHKHHGPTRTVEIINVEDELPAASAVSVAAAAAVASGGGVGGDSHLALPALERDHLNHHHYVAAAFKAHYSSNPSGGGCGGKGPPGLNSIHEPLLFKSGSKENVQETQI
B1 was tested, and the binding [1] was “binds” and the binding [2] was “binds”.

Reference: patent US20250333441A1, “POLYPEPTIDE INHIBITORS AND USES THEREOF” (Neuracle Science Co., Ltd., priority 2021, published 2025)
